Four molecules from doi:10.1101/2020.01.08.898304 (bioRxiv, 2020) can be followed below.

By UniProt entry, the sequences of proteins in these tests, tags left out. Where a name states a change or a piece, a line headed by the entry shows the natural chain unless it says otherwise. Chains listed by the source or under a name are the forms on record and can include a tag or linker. Residues count along the entry.
KID (102-165 aa) domain of CREB, His-SUMO-tagged (P15337, residues 88-151): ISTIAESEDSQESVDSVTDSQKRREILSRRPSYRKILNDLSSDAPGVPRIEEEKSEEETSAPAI
CREB-GFP (P15337-1, form named): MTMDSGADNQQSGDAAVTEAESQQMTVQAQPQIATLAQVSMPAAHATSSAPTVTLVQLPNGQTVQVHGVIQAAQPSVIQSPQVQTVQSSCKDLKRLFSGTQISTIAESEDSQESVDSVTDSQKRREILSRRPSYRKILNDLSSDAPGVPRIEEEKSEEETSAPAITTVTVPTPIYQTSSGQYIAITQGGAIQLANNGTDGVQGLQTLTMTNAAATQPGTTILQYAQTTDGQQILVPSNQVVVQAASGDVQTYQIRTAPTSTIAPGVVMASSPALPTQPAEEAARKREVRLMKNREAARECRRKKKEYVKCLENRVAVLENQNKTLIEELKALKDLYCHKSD
UniProt P16220: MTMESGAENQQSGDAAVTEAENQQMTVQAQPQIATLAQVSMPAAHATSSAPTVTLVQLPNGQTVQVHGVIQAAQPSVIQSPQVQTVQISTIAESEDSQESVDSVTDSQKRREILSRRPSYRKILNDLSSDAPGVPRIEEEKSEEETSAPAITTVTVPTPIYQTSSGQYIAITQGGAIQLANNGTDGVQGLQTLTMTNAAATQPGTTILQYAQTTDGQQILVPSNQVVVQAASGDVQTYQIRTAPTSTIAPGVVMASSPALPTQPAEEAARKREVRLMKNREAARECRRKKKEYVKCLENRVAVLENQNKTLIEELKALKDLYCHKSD

Where two headings read alike, the source gives them in different places. These are yes or no findings as the source states them, for the method shown. For part of these data: In cells and extracts the contact can be indirect. Some binding calls cover weakened binding; strength is not graded here. For part of these data: Where a sequence is shown, tags or fusion partners need not be part of it.

Experiment [1] has as its target T1, Jacob-GFP (UniProt Q9EPI6).
T1 sequence: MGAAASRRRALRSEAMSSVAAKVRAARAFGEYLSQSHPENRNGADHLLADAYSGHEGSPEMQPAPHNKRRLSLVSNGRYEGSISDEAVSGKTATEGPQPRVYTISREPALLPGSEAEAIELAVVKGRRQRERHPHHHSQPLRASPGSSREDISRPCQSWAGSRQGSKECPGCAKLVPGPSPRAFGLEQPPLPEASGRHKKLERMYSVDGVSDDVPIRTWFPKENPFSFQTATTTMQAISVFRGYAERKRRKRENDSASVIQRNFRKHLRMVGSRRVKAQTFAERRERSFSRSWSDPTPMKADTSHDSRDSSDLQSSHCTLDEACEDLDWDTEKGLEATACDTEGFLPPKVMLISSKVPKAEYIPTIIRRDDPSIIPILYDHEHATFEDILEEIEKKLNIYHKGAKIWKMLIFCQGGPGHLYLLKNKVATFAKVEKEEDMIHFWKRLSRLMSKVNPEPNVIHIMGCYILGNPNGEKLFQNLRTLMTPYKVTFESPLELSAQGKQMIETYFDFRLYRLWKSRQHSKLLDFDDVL
Put plainly: co-IP.

For another experiment, the target named is T2, Jacob-262-532-GFP (UniProt Q9EPI6).
T2 sequence: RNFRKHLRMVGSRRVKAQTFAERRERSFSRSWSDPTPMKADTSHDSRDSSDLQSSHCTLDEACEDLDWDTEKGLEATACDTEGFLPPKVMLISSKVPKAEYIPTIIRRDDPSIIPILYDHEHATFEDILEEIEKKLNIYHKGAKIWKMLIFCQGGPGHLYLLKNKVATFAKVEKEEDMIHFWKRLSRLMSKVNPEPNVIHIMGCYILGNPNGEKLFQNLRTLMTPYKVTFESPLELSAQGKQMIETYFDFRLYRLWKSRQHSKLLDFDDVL
Put plainly: FRET or BRET.

The target of another experiment is T3, LMO4-GFP (UniProt P61968).
T3 sequence: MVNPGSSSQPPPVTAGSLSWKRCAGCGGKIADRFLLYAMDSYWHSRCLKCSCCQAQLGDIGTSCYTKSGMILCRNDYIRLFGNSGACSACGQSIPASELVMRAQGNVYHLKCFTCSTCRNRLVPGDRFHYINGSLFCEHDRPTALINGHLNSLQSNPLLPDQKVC
Put plainly: FRET or BRET.

Experiment [2] addresses T1, Jacob-GFP. Put plainly: FRET or BRET.
The target of experiment [3] is T4, Jacob-1-228-GFP (UniProt Q9EPI6).
T4 sequence: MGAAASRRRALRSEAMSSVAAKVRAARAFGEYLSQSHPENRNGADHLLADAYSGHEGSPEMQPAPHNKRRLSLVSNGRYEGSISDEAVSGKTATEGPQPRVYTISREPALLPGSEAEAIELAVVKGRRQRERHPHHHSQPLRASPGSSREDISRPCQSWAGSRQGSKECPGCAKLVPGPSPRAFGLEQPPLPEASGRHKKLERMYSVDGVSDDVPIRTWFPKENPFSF
Put plainly: FRET or BRET.

The target of experiment [4] is T5, N-terminus of Jacob (117-172 aa), pull-down fragment (UniProt Q9EPI6).
T5 sequence: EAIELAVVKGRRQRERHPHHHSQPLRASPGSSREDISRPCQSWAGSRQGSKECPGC
Description: pull-down.

The target of a further experiment is CREB-GFP (UniProt P15337). Put plainly: FRET or BRET.
Experiment [5] has as its target T4, Jacob-1-228-GFP. Description: FRET or BRET. This is another data set of the same source.
In a further experiment the target is T6, Jacob-1-246-GFP (UniProt Q9EPI6).
T6 sequence: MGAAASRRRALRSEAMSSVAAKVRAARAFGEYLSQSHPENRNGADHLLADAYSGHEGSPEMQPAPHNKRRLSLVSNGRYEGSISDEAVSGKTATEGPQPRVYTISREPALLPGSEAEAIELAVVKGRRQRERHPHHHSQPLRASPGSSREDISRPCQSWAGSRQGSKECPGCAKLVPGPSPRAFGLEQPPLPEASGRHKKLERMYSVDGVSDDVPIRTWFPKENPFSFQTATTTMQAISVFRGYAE
Description: co-IP.

Another experiment addresses T7, Jacob-247-532-GFP (UniProt Q9EPI6).
T7 sequence: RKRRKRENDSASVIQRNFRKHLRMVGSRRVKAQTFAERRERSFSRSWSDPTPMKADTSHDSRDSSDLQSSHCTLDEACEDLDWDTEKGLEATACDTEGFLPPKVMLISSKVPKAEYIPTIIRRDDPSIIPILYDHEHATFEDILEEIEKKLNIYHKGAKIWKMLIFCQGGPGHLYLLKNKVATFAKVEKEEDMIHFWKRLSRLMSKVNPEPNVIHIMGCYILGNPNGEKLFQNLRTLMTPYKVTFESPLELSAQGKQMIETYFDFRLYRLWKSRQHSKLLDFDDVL
Put plainly: co-IP.

The target of a further experiment is T8, Jacob-45-172-GFP (UniProt Q9EPI6).
T8 sequence: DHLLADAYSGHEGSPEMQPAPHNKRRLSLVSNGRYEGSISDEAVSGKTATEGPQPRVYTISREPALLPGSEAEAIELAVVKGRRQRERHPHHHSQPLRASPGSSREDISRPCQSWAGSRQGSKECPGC
Put plainly: co-IP.

Another experiment addresses T9, Jacob-173-246-GFP (UniProt Q9EPI6).
T9 sequence: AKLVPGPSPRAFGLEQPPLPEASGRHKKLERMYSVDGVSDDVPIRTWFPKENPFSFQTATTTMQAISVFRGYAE
Put plainly: co-IP.

Take “Endogenous CREB (HEK293T) (from UniProt P16220 1-327)”: in the experiment with Jacob-GFP [1], the binding result is reported as “binds”.
For the molecule “CREB-tagRFP (from UniProt P15337-1 1-341)”, the binding entry with Jacob-262-532-GFP, in the experiment with LMO4-GFP, in the experiment with Jacob-GFP [2] and in the experiment with Jacob-1-228-GFP [3] was “binds” each time.
Turning to “KID (102-165 aa) domain of CREB, His-SUMO-tagged (from UniProt P15337-1 102-165) (domain or fragment)”, the binding entry in experiment [4] is given as “no binding”.

B1: LIM1-1-80-tagRFP (domain or fragment, UniProt P61968 1-80)
chain: MVNPGSSSQPPPVTAGSLSWKRCAGCGGKIADRFLLYAMDSYWHSRCLKCSCCQAQLGDIGTSCYTKSGMILCRNDYIRL
For B1, the binding result in the experiment with CREB-GFP is recorded as “binds”; with Jacob-1-228-GFP [5], “binds”; with Jacob-1-246-GFP, “binds”; with Jacob-247-532-GFP, “no binding”; with Jacob-45-172-GFP, “no binding”; with Jacob-173-246-GFP it was “binds”.
